Publication PMC11322666
Results are given in words; binding and its absence hold for the method and conditions named. In cells and extracts the contact can be indirect. Binding can be weak; no strength is given. Tags and fused reporters may be left off the sequences shown.

Target: T1, GST-UPF3B fusion protein (human) (UniProt Q9BZI7)
T1 sequence: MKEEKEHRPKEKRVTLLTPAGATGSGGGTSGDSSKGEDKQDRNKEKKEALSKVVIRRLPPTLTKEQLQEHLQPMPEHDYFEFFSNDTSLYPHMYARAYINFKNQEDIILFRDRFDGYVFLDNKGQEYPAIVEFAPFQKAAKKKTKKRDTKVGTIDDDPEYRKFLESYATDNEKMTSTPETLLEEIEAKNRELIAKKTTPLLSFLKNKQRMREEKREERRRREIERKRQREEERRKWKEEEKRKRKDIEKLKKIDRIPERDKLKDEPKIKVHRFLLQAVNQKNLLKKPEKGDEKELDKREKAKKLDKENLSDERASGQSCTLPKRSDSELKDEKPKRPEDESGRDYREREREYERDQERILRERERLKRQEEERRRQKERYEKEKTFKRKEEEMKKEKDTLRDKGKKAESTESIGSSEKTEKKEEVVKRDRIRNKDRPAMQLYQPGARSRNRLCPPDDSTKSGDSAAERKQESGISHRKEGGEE
Assay: pull-down; GST fusion protein from Rosetta cells on Glutathione Sepharose beads, incubated with HEK293T lysate for 4 h at 4 °C, washed three times with RIPA buffer, western blot with anti-Flag or anti-GST; only the target purified

binding	Substance
no binding	IRE1α^ΔKR-Flag (human) (domain or fragment)
binds	IRE1α^ΔR-Flag (human) (domain or fragment)
